The source of these data is PubChem BioAssay AID330 (DTP/NCI, 2004).

This assay deals with P388 leukemia ip, CD2F1 mice, survival T/C. Nature of the assay: NCI In Vivo Anticancer Drug Screen. Data for tumor model P388 Leukemia (intraperitoneal) in CD2F1 (CDF1) mice. The conditions noted are these: T/C endpoint: median survival time, higher T/C = longer survival.
Setting [1] is: dose: 50.0 mg/kg/injection, schedule: Q04DX002 (ip), vehicle: Klucel (hydroxypropylcellulose) (HPC).
[2] abbreviates: dose: 50.0 mg/kg/injection, schedule: Q04DX003 (ip), vehicle: Klucel (hydroxypropylcellulose) (HPC).
[3] abbreviates: dose: 100.0 mg/kg/injection, schedule: Q01DX009 (ip), vehicle: Klucel (hydroxypropylcellulose) (HPC).
The mark [4] stands for this setting: dose: 100.0 mg/kg/injection, schedule: Q04DX003 (ip), vehicle: Klucel (hydroxypropylcellulose) (HPC).
Where [5] appears, read: dose: 200.0 mg/kg/injection, schedule: Q01DX001 (ip), vehicle: Klucel (hydroxypropylcellulose) (HPC).
[6] abbreviates: dose: 200.0 mg/kg/injection, schedule: Q01DX005 (ip), vehicle: Klucel (hydroxypropylcellulose) (HPC).
Setting [7] is: dose: 200.0 mg/kg/injection, schedule: Q01DX009 (ip), vehicle: Klucel (hydroxypropylcellulose) (HPC).
The mark [8] stands for this setting: dose: 200.0 mg/kg/injection, schedule: Q04DX003 (ip), vehicle: Klucel (hydroxypropylcellulose) (HPC).
The mark [9] stands for this setting: dose: 400.0 mg/kg/injection, schedule: Q01DX001 (ip), vehicle: Klucel (hydroxypropylcellulose) (HPC).
The mark [10] stands for this setting: dose: 400.0 mg/kg/injection, schedule: Q01DX005 (ip), vehicle: Klucel (hydroxypropylcellulose) (HPC).
Where [11] appears, read: dose: 400.0 mg/kg/injection, schedule: Q01DX009 (ip), vehicle: Klucel (hydroxypropylcellulose) (HPC).
Setting [12] is: dose: 400.0 mg/kg/injection, schedule: Q04DX002 (ip), vehicle: Klucel (hydroxypropylcellulose) (HPC).
The mark [13] stands for this setting: dose: 400.0 mg/kg/injection, schedule: Q04DX003 (ip), vehicle: Klucel (hydroxypropylcellulose) (HPC).

The list shows only some results of the screen, not a fair sample: it gathers tests that were run many times, whatever their T/C, doses with no T/C, and many T/C values between a quarter and a half above the control. Other doses and runs of a compound stand elsewhere. T/C gives the treated animals as a percentage of the vehicle group. Some entries give survivors of the animals treated and no T/C: the source files T/C as zero there, which appears to mark a toxic dose or a test without result, not a measured value. Some survivor counts are full or nearly so, which does not show that the dose was tolerated: the source hardly ever lists a survival T/C far under the control, and the zero likely stands for such cases as well. Survivors were counted at the toxicity check, usually on the fifth day, unless a day is given; later deaths do not show. Schedule codes are those of the source, taken here to give the interval after Q, in days (D) or hours (H), and the number of doses after X. Some entries hold several experiments; the values are given in rising order. Where survival is the endpoint, this PubChem deposit counts one and a half times the control or more as active, and values a quarter to a half above the control carry no call in these data; other NCI protocols may use other cut-offs. Some T/C values are followed by the survivors on the day toxicity was checked, most often the fifth; where none is given, no animal had died by that day. Brackets with × say how often a value occurs here.

For the compound `CC(=O)[C@H]1CC[C@H]2[C@@H]3C[C@H](C)C4=CC(=O)CC[C@]4(C)[C@H]3C(=O)C[C@]12C`, the T/C was 89, 90, 94 [5 of 6 alive], 95 (2×), 96, 97, 98 (2×), 100 (7×), 101 (3×), 102 (2×), 103, 104, 105 (2×), 109 [2 of 3 alive], 110, 111 (2×), 113, 120, 122 % of control (dose: 50.0 mg/kg/injection, schedule: Q01DX001 (ip), vehicle: Klucel (hydroxypropylcellulose) (HPC)); 87, 90, 94 (2×), 95, 96, 97 (5×), 98, 99, 100 (4×), 102 (2×), 103, 105 (3×), 106, 107 (3×), 108, 110, 110 [5 of 6 alive], 111 (3×), 112, 113, 114 % of control (dose: 50.0 mg/kg/injection, schedule: Q01DX005 (ip), vehicle: Klucel (hydroxypropylcellulose) (HPC)); 87, 89 (2×), 94 (2×), 95 (3×), 96, 97, 98 (2×), 99 (2×), 100 (3×), 101 (6×), 102 (2×), 103 (2×), 104, 105, 108 (2×), 110, 111, 113, 117 % of control (dose: 50.0 mg/kg/injection, schedule: Q01DX009 (ip), vehicle: Klucel (hydroxypropylcellulose) (HPC)); 93, 94, 95 (3×), 97 (2×), 99 (3×), 100 (8×), 102, 103 (2×), 104 (3×), 104 [2 of 3 alive], 105 (3×), 107 (2×), 108, 109 (2×), 112 % of control under setting [1]; 88 [2 of 3 alive], 91, 94 [2 of 3 alive], 95 (2×), 96 (2×), 99, 100 (8×), 101 (2×), 102 (2×), 103 (2×), 104 (2×), 104 [2 of 3 alive], 105, 106 (4×), 109, 111, 112, 115 % of control under setting [2]; 87, 89, 93, 94, 95, 97 (2×), 98, 99 (2×), 100 (3×), 101 (3×), 102 (3×), 103 (2×), 104 (2×), 106 (2×), 109, 110 (2×), 114, 115, 118, 122 % of control (dose: 100.0 mg/kg/injection, schedule: Q01DX001 (ip), vehicle: Klucel (hydroxypropylcellulose) (HPC)). Moreover, the T/C is 89, 93 [5 of 6 alive], 94 (2×), 95, 96, 97 (2×), 97 [5 of 6 alive], 98 (4×), 99, 100 (2×), 101 (5×), 102 (3×), 104, 105 (2×), 106, 106 [5 of 6 alive], 107 (4×), 108 (2×), 109 % of control (dose: 100.0 mg/kg/injection, schedule: Q01DX005 (ip), vehicle: Klucel (hydroxypropylcellulose) (HPC)); 86 [5 of 6 alive], 91 (2×), 93, 93 [5 of 6 alive], 94 (3×), 95, 97, 98, 98 [5 of 6 alive], 99, 102, 103 (3×), 104 (3×), 105, 107, 109, 111 (2×), 112, 113, 114, 115, 117 [5 of 6 alive], 122, 132 % of control under setting [3]; 87, 90 (2×), 92 (2×), 93, 94, 95, 96, 97, 98, 99 [5 of 6 alive], 100 (7×), 101 (2×), 102, 103 (2×), 104, 106 (4×), 108, 111 [2 of 3 alive], 112, 115, 116, 117 % of control (dose: 100.0 mg/kg/injection, schedule: Q04DX002 (ip), vehicle: Klucel (hydroxypropylcellulose) (HPC)); 87, 88, 96 (2×), 98, 99 (3×), 100 (5×), 101, 102 (3×), 103 (2×), 104 (4×), 105 (2×), 106, 107, 108, 109 (2×), 110 (2×), 113 % of control (2×) under setting [4]; 90, 95 (2×), 96, 99, 100 (10×), 101 (5×), 102, 103, 104 (2×), 105 (2×), 107 (2×), 111, 120, 137 % of control under setting [5]; 89, 90, 90 [5 of 6 alive], 91, 92, 93 (4×), 96 (2×), 97 (3×), 99 (2×), 100 (4×), 101, 102 (3×), 102 [5 of 6 alive], 104 (3×), 105 (2×), 106, 107, 112, 117, 121 % of control under setting [6]. Besides, the T/C is 89, 90, 93 (2×), 95 (2×), 97, 98 (2×), 99, 100 (2×), 102 (4×), 103 (4×), 104, 105 (2×), 107, 108, 109 (2×), 110, 111, 112, 118, 119, 122, 128 % of control (2×) under setting [7]; 90, 91, 92, 93, 95, 97 (2×), 98 (2×), 99, 100 (5×), 102 (3×), 103 (3×), 104 (2×), 105 (5×), 107, 110, 111, 113 (2×), 114, 122 % of control (dose: 200.0 mg/kg/injection, schedule: Q04DX002 (ip), vehicle: Klucel (hydroxypropylcellulose) (HPC)); 88 (2×), 94 (2×), 95, 96, 98, 99 (2×), 100 (6×), 101 [2 of 3 alive], 101 [5 of 6 alive], 102, 103 (2×), 104 (3×), 105 (2×), 106 (3×), 107 (2×), 109 (2×), 110, 113 % of control under setting [8]; 87, 94, 97 [5 of 6 alive], 100 (10×), 100 [5 of 6 alive], 101, 101 [5 of 6 alive], 102 (2×), 102 [4 of 6 alive], 103, 104 (2×), 105 (3×), 106 (2×), 107 (2×), 111, 120 % of control [2 of 3 alive] under setting [9]; 88, 89, 92, 93, 95, 95 [5 of 6 alive], 97, 99, 100, 100 [4 of 6 alive], 101 (2×), 102, 107, 107 [2 of 3 alive], 107 [5 of 6 alive], 108, 109, 110 [2 of 3 alive], 111, 111 [5 of 6 alive], 112 (2×), 117, 120, 129 % of control under setting [10]; 90, 94 [5 of 6 alive], 95 [2 of 3 alive], 98, 98 [5 of 6 alive], 99 (2×), 100, 101, 102, 103 (2×), 104 [5 of 6 alive], 105, 106, 107 [5 of 6 alive], 108, 108 [2 of 3 alive], 108 [4 of 6 alive], 109, 113, 114 [2 of 3 alive], 117 [2 of 3 alive], 119, 122 % of control under setting [11]. Also, the T/C is, setting by setting: under setting [12], 91 (2×), 93 (2×), 95, 99 (2×), 100, 100 [4 of 6 alive], 101 (3×), 102 (3×), 102 [2 of 3 alive], 102 [4 of 6 alive], 104 (2×), 105, 106, 106 [5 of 6 alive], 107 [2 of 3 alive], 108, 108 [4 of 6 alive], 109, 109 [5 of 6 alive], 110, 114 % of control; under setting [13], 87, 88 (2×), 89, 91 [2 of 3 alive], 94, 99, 100 (6×), 101, 101 [5 of 6 alive], 102 (2×), 103, 103 [5 of 6 alive], 104, 106, 107 (2×), 108 (2×), 109 (3×), 111, 112, 116 (2×), 146 % of control. In addition, the survivor count runs as follows: under setting [1], 6 of 6; under setting [2], 3 of 3 and 6 of 6; under setting [3], 3 of 3; under setting [4], 2 of 3, 3 of 3, 6 of 6; under setting [5], 5 of 6; under setting [6], 2 of 3. Further, the survivor count by setting is: under setting [8], 4 of 6, 3 of 3, 6 of 6; under setting [9], 0 of 3; under setting [10], 0 of 3, 0 of 6, 1 of 6, 1 of 3, 3 of 6, 3 of 3; under setting [11], 0 of 3, 0 of 6, 1 of 3, 2 of 6, 3 of 6, 3 of 3, 6 of 6; under setting [12], 0 of 3, 0 of 6, 3 of 6, 2 of 3; under setting [13], 1 of 3, 3 of 3, 6 of 6.
For the compound `CC1(C)CN(C2CCCCC2)CN2C1OCC2(C)C` (stereo unspecified), the T/C was 125 % of control (dose: 40.0 mg/kg/injection, schedule: Q01DX009 (ip), vehicle: saline with Tween-80) and 125 % of control (dose: 160.0 mg/kg/injection, schedule: Q01DX009 (ip), vehicle: saline with Tween-80).
On to `CCOc1c(N=Nc2ccccc2C)c(C)nn1C(=S)SC`, for which, under “dose: 240.0 mg/kg/injection, schedule: Q01DX005 (ip), vehicle: Klucel + Tween-80”, the survivor count is listed as 5 of 6.
With `CC1(C)CC2(OC2c2ccccc2)C(=O)c2ccccc21` (stereo unspecified), the survivor count under setting [7] is given as 6 of 6.
On to `C[Si](C)(C)ONC(=O)c1ccccc1`, for which the T/C (dose: 400.0 mg/kg/injection, schedule: Q01DX009 (ip), vehicle: distilled water + Tween-80) is 132 % of control [4 of 5 alive].
On to `CCCCN=C(N=C(N)N)NCC`, for which, where the note is “dose: 200.0 mg/kg/injection, schedule: Q01DX005 (ip), vehicle: saline”, the survivor count is on record as 0 of 6.
For `CCCCC1CCCCCCc2[nH]c(/C=C3\N=C(c4ccc[nH]4)C=C3OC)cc21` (stereo unspecified), the T/C (dose: 0.5 mg/kg/injection, schedule: Q01DX009 (ip), vehicle: saline with Tween-80) is 130 % of control; the T/C (dose: 0.7 mg/kg/injection, schedule: Q01DX009 (ip), vehicle: saline with Tween-80) is 126 % of control; the T/C (dose: 1.0 mg/kg/injection, schedule: Q01DX009 (ip), vehicle: saline with Tween-80) is 145 % of control; the T/C (dose: 1.56 mg/kg/injection, schedule: Q01DX009 (ip), vehicle: saline with Tween-80) is 129 % of control. In addition, the survivor count is, setting by setting: (dose: 1.5 mg/kg/injection, schedule: Q01DX009 (ip), vehicle: saline with Tween-80) 1 of 6; (dose: 2.0 mg/kg/injection, schedule: Q01DX009 (ip), vehicle: saline with Tween-80) 3 of 6 and 4 of 6; (dose: 2.3 mg/kg/injection, schedule: Q01DX009 (ip), vehicle: saline with Tween-80) 4 of 6; (dose: 3.13 mg/kg/injection, schedule: Q01DX009 (ip), vehicle: saline with Tween-80) 6 of 6; (dose: 6.25 mg/kg/injection, schedule: Q01DX009 (ip), vehicle: saline with Tween-80) 5 of 6; (dose: 12.5 mg/kg/injection, schedule: Q01DX009 (ip), vehicle: saline with Tween-80) 4 of 6.
With `CN(C)c1ccc(C(=NNC(N)=S)c2ccc(N(C)C)cc2)cc1`, the survivor count runs as follows: under setting [4], 0 of 6; under setting [8], 0 of 6; under setting [13], 0 of 6.
